Source: the supplement of paper PMC7666118
The other results are listed elsewhere or left out.

The chains behind the UniProt entries cited, without tags or fusion partners. Where a name states a change or a piece, a line headed by the entry shows the natural chain unless it says otherwise.
UniProt Q99848: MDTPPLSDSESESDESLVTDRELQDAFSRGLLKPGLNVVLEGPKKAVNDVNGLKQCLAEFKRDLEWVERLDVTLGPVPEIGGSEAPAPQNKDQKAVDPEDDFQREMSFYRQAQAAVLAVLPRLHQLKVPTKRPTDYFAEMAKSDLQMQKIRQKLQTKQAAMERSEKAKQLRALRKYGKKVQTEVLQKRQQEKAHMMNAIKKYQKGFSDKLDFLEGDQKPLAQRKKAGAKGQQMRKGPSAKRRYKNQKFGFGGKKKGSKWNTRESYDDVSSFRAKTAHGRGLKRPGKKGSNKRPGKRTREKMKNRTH
UniProt Q9NTX5: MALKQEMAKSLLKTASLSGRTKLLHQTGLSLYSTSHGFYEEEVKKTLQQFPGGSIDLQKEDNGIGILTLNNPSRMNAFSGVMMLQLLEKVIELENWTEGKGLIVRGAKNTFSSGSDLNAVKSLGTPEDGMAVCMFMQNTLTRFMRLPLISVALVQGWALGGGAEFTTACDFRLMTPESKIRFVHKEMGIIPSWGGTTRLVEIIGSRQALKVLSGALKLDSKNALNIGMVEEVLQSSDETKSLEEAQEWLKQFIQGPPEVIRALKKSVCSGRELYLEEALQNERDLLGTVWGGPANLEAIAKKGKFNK
UniProt P52799, whole entry: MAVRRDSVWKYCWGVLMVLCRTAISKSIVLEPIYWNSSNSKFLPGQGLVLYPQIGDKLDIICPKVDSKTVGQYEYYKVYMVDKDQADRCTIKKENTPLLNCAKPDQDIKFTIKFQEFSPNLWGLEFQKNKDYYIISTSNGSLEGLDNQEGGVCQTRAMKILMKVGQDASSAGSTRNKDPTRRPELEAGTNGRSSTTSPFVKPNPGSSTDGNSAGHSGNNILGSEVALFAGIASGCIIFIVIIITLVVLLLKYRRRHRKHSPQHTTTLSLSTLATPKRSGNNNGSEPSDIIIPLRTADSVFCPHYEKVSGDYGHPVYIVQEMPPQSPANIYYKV
UniProt P38117: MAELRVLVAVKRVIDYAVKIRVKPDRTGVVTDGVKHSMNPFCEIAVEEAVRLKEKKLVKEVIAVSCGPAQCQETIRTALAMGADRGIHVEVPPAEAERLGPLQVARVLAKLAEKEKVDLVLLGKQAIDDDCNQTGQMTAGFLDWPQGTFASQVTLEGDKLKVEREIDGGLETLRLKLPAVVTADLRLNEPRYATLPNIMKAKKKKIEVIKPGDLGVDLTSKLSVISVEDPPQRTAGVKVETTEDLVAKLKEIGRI
UniProt Q5VST6: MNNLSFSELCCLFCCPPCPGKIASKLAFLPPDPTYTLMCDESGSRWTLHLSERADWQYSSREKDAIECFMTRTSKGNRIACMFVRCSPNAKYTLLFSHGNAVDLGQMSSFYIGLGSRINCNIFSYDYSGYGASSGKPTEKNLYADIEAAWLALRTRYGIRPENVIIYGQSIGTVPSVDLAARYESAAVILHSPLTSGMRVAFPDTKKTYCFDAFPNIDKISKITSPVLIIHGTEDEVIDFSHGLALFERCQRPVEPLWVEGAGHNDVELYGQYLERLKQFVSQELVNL
UniProt Q14204, whole entry: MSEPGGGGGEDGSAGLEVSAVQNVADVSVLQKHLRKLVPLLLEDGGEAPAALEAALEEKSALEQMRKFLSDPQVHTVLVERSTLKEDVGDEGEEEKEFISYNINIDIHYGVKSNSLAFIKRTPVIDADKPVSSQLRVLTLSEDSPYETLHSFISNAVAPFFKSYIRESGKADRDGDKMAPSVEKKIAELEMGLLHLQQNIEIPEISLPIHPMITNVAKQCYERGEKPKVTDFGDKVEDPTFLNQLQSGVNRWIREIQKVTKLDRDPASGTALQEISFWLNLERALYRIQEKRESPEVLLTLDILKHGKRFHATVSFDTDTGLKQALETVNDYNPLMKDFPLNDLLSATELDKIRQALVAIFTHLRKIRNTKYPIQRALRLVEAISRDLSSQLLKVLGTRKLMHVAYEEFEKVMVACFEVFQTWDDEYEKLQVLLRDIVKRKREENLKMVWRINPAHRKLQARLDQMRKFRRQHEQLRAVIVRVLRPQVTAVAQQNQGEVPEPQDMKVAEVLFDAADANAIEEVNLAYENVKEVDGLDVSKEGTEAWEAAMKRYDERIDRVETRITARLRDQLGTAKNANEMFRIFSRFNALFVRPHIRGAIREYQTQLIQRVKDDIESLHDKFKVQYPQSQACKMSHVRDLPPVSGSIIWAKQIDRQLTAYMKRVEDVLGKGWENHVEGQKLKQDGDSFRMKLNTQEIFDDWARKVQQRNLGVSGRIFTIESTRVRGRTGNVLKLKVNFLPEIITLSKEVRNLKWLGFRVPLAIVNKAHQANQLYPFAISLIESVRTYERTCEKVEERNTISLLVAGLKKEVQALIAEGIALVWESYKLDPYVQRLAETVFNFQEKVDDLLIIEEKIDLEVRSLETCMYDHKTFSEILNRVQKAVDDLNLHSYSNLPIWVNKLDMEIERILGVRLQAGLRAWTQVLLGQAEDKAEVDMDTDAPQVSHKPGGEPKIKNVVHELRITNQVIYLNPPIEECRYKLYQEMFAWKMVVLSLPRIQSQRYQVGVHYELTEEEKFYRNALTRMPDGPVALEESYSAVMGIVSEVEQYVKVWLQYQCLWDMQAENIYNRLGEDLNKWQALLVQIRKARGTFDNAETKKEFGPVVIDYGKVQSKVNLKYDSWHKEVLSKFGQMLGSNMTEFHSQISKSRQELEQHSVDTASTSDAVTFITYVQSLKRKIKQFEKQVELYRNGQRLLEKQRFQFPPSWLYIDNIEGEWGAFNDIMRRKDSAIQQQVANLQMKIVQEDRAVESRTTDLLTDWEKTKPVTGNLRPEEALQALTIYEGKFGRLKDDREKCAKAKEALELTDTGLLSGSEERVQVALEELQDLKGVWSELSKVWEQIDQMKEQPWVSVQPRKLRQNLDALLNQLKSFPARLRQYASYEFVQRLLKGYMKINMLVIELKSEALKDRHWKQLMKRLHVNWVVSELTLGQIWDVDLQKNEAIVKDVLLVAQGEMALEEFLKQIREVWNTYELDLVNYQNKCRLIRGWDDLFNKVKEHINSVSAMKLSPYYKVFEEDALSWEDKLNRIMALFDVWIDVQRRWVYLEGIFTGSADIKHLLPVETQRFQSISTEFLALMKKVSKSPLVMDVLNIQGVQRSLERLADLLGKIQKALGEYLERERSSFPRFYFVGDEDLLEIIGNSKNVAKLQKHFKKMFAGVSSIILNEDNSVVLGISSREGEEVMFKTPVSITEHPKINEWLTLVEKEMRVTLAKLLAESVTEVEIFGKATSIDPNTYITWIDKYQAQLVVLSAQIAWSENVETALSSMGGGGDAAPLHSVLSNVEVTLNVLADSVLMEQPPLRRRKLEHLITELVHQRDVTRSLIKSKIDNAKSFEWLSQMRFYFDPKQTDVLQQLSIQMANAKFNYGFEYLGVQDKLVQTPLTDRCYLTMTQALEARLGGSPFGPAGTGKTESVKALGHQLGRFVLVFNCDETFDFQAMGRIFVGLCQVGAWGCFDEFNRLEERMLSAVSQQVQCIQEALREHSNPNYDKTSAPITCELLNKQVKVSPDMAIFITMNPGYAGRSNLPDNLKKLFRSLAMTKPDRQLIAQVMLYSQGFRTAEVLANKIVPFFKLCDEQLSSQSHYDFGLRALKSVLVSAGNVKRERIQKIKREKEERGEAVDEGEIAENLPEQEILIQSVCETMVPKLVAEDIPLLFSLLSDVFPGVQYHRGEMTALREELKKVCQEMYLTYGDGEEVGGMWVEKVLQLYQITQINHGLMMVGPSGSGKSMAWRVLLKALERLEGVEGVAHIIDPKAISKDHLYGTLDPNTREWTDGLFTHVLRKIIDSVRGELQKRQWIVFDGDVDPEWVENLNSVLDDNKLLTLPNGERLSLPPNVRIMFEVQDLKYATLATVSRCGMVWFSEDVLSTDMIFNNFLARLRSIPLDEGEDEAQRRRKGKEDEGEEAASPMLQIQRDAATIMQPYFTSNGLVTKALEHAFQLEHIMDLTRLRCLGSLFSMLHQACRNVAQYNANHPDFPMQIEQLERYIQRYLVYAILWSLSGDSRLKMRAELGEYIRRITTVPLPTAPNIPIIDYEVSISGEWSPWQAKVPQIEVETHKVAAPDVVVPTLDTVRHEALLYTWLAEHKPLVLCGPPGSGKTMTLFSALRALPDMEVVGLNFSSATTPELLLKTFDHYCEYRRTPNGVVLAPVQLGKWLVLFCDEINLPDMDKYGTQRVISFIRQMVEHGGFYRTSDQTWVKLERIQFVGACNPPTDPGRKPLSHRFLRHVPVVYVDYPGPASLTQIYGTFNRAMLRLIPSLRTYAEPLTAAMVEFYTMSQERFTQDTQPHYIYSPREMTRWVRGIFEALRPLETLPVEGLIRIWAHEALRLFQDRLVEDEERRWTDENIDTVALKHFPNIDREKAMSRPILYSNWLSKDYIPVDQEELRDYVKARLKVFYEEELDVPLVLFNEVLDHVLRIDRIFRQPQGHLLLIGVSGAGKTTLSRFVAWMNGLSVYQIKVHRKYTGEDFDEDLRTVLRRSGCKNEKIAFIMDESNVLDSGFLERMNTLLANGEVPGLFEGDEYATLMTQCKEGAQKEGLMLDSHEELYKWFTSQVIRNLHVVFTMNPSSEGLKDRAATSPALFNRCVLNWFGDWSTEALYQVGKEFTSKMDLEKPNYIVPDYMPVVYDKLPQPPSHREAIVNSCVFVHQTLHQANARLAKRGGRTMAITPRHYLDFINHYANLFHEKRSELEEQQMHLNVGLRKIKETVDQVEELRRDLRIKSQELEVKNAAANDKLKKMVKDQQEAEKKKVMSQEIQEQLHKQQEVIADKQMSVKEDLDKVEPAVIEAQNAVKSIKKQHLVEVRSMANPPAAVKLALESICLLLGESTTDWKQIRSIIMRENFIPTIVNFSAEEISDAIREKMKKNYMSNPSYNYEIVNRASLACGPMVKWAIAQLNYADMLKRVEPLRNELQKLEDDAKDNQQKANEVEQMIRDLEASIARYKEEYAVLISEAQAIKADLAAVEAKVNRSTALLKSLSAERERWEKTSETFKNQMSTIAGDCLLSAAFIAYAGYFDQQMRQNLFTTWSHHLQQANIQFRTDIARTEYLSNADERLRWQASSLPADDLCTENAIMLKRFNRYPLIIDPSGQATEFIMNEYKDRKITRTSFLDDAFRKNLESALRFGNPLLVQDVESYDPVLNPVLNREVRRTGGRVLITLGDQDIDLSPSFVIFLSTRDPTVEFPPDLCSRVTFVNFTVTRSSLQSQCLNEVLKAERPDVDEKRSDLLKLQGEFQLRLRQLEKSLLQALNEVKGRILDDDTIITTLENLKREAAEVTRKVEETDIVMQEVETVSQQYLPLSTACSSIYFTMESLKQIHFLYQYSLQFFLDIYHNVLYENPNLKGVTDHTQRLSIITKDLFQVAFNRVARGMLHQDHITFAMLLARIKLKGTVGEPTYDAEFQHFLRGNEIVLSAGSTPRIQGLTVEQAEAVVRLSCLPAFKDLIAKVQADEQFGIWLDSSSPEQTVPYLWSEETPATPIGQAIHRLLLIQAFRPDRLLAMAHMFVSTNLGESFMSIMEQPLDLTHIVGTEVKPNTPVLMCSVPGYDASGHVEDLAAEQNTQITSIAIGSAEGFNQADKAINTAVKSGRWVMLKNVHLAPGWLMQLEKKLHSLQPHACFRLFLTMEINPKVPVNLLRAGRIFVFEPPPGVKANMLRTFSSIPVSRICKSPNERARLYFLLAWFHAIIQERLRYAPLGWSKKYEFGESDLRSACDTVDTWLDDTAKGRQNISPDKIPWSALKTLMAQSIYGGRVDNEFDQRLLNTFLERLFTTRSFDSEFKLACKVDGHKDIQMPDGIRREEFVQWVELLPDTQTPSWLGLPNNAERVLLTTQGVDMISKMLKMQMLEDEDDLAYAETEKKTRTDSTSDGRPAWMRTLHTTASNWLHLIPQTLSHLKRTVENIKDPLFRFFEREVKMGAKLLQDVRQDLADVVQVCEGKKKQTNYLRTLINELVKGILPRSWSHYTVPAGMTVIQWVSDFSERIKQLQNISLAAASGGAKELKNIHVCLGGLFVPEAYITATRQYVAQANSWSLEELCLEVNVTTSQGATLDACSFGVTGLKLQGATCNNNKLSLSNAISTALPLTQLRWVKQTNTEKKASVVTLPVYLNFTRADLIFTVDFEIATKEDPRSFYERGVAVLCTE
UniProt Q14240, whole entry: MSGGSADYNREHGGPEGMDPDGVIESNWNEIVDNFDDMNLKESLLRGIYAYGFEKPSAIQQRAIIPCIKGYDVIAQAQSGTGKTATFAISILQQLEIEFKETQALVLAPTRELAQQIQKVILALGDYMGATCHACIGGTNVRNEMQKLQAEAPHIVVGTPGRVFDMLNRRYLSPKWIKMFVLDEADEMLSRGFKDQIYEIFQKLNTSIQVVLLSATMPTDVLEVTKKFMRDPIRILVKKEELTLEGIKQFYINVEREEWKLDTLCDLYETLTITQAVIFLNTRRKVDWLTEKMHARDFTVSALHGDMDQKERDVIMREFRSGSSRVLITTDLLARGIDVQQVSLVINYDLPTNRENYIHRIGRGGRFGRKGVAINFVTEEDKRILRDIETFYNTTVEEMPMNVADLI

compound: COc1ccc(Cn2ccc3cc(C)c(C(=O)NO)cc32)cc1; test: dose-dependent thermal stabilisation call (2D-TPP, DLPTP, 10% FDR) (binary (1 = stabilised)); higher = stabilised by the compound; details: system: HL-60 intact cells; concentration range 0.04-10 µM
Method: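 2D thermal proteome profiling in intact HL-60 cells treated with BRD-3811 (0, 0.04, 0.29, 2, 10 uM) for 90 min at 37 C, then heated 3 min at one of 12 temperatures (42-63.9 C). Soluble protein was quantified by TMT10 MS. The value is the DLPTP call of the paper: dose-dependent thermal stabilisation over all temperatures at 10% FDR (F-test of a dose-response against a flat model); one experiment, one call per tested protein.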

Row | Target | dose-dependent thermal stabilisation call
1 | EGLN1 (UniProt Q9GZT9) | inactive: 0
2 | EIF3G (UniProt O75821) | inactive: 0
3 | EXOC7 (UniProt Q9UPT5) | inactive: 0
4 | EEF1D (UniProt P29692) | inactive: 0
5 | EFHA1 (UniProt Q8IYU8) | inactive: 0
6 | ELP2 (UniProt Q6IA86) | inactive: 0
7 | EIF2B5 (UniProt Q13144) | inactive: 0
8 | ELP4 (UniProt Q96EB1) | inactive: 0
9 | FAM40A (UniProt Q5VSL9) | inactive: 0
10 | EI24 (UniProt O14681) | inactive: 0
11 | ERF (UniProt P50548) | inactive: 0
12 | ESPL1 (UniProt Q14674) | inactive: 0
13 | EBNA1BP2 (UniProt Q99848) | inactive: 0
14 | FAM114A2 (UniProt Q9NRY5) | inactive: 0
15 | ECHDC1 (UniProt Q9NTX5) | inactive: 0
16 | ERGIC2 (UniProt Q96RQ1) | inactive: 0
17 | DPYSL2 (UniProt Q16555) | inactive: 0
18 | EXOSC7 (UniProt Q15024) | inactive: 0
19 | EFNB2 (UniProt P52799) | inactive: 0
20 | ERCC1 (UniProt P07992) | inactive: 0

From entry 2 to 4, copied from above:
Row | Target | dose-dependent thermal stabilisation call
2 | EIF3G (UniProt O75821) | inactive: 0
3 | EXOC7 (UniProt Q9UPT5) | inactive: 0
4 | EEF1D (UniProt P29692) | inactive: 0

Later entries:

Row | Target | dose-dependent thermal stabilisation call
21 | ELMO1 (UniProt Q92556) | inactive: 0
22 | ETFB (UniProt P38117) | inactive: 0
23 | FAM108B1 (UniProt Q5VST6) | inactive: 0
24 | EML4 (UniProt Q9HC35) | inactive: 0
25 | EIF2B2 (UniProt P49770) | inactive: 0
26 | EIF2B1 (UniProt Q14232) | inactive: 0
27 | ERI3 (UniProt O43414) | inactive: 0
28 | EIF4G1 (UniProt Q04637) | inactive: 0
29 | FAM102B (UniProt Q5T8I3) | inactive: 0
30 | DRG1 (UniProt Q9Y295) | inactive: 0
31 | DYNC1H1 (UniProt Q14204) | inactive: 0
32 | EDEM3 (UniProt Q9BZQ6) | inactive: 0
33 | EIF3M (UniProt Q7L2H7) | inactive: 0
34 | EIF3L (UniProt Q9Y262) | inactive: 0
35 | FAM118B (UniProt Q9BPY3) | inactive: 0
36 | EIF3C (UniProt Q99613) | inactive: 0
37 | DUS2L (UniProt Q9NX74) | inactive: 0
38 | FAM129A (UniProt Q9BZQ8) | inactive: 0
39 | EIF4A2 (UniProt Q14240) | inactive: 0
40 | FAM45A (UniProt Q8TCE6) | inactive: 0
